From paper doi:10.1101/2021.06.14.448173
These are yes or no findings as the source states them, for the method shown. Binding can be weak; no strength is given. For some of these results: Tags and fused reporters may be left off the sequences shown. For some of these results: Binding seen in cells or lysates may run through a third protein. Blank lines part the entries; values can stand above or below the molecule they belong to.

Sequences of proteins named here, by UniProt entry; tags and fusion partners are left off. A change or cut given only in a name is not applied to a line headed by its entry.
UniProt Q8VXZ9: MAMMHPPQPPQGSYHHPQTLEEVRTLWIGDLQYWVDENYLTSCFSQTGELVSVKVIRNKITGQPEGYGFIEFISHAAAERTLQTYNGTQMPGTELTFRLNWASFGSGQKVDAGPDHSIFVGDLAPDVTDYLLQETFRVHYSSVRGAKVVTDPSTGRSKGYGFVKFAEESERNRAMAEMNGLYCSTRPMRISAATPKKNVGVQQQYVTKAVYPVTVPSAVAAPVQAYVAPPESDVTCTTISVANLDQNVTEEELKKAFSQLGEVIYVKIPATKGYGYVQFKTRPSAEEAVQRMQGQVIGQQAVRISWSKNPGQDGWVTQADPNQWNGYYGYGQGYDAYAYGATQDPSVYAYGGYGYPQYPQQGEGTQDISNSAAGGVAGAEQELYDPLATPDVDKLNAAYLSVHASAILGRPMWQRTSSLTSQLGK

How the values were obtained:
[1] = target: T1, pre-mRNA-processing factor 39a (PRP39a), GAL4 DNA binding domain fusion (Arabidopsis thaliana) (UniProt Q93ZR3); experiment: two-hybrid
T1 sequence: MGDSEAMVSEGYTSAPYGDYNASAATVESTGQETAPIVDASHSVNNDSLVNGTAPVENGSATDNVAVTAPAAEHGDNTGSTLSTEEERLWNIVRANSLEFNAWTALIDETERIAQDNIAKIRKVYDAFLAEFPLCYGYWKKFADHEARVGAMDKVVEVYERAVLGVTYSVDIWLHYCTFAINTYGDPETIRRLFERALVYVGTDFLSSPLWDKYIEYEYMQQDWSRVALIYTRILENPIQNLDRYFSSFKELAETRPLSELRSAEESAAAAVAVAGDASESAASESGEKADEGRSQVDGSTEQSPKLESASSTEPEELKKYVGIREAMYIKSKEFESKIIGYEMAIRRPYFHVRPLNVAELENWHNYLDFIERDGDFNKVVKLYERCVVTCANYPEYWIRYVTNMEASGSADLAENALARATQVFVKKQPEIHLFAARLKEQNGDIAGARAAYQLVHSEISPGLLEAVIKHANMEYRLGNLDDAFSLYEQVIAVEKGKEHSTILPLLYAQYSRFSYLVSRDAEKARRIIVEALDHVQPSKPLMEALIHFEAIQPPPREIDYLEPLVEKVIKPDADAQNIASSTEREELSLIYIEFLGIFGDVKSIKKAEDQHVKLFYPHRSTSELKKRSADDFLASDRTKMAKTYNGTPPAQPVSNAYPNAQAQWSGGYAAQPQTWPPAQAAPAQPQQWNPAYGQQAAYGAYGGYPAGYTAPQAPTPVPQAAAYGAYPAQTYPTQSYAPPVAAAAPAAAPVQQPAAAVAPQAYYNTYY

[2] = target: RNA BINDING PROTEIN 45d (RBP45d), GAL4 DNA binding domain fusion (Arabidopsis thaliana), Q8VXZ9; experiment: two-hybrid; details: remark: other sources report otherwise
[3] = target: RBP45d-5xc-Myc (Arabidopsis thaliana) (UniProt Q8VXZ9); experiment: co-IP
[4] = target: RNA BINDING PROTEIN 45d (RBP45d), GAL4 DNA binding domain fusion (Arabidopsis thaliana) (UniProt Q8VXZ9); experiment: two-hybrid

B1: U1-70K, GAL4 activation domain fusion, Q42404 1-427 (protein)
chain: MGDSGDPFLRNPNAAVQARAKVQNRANVLQLKLMGQSHPTGLTNNLLKLFEPRPPLEYKPPPEKRKCPPYTGMAQFVSNFAEPGDPEYAPPKPEVELPSQKRERIHKLRLEKGVEKAAEDLKKYDPNNDPNATGDPYKTLFVSRLNYESSESKIKREFESYGPIKRVHLVTDQLTNKPKGYAFIEYMHTRDMKAAYKQADGQKIDGRRVLVDVERGRTVPNWRPRRLGGGLGTSRVGGGEEIVGEQQPQGRTSQSEEPSRPREEREKSREKGKERERSRELSHEQPRERSRDRPREDKHHRDRDQGGRDRDRDSRRDRDRTRDRGDRDRRDRDRGRDRTSRDHDRDRSRKKERDYEGGEYEHEGGGRSRERDAEYRGEPEETRGYYEDDQGDTDRYSHRYDKMEEDDFRYEREYKRSKRSESREYVR
binding [2]: binds

B3: U1C, GAL4 activation domain fusion (protein, UniProt Q56XE4 1-207)
chain: MPRYYCDYCDTYLTHDSPSVRKQHNAGYKHKANVRIYYQQFEEQQTQSLIDQRIKEHLGQTGGYQQVGAVFNQHMLARPRPPMMLPPGSMPMGMRPPVLPRPMMPPQGYMPPPGVPQMMAPPGAPLPPPPQNGILRPPGMAPIPGQGGGPPGMAPIPGQGGGPPPNYNGLPPPPPYHTNPAAPPSGNFNNPNLNNPNPSAESPESNE
binding [4]: binds

The remaining lines, values ahead:

binding [1]: binds
Molecule: RNA BINDING PROTEIN 45d (RBP45d), GAL4 activation domain fusion (from UniProt Q8VXZ9)

binding [3]: binds
B2: pre-mRNA-processing factor 39a (PRP39a), endogenous (protein, UniProt Q93ZR3 1-768)
chain: T1 sequence
